Article PMC10688318
These are yes or no findings as the source states them, for the method shown. Binding seen in cells or lysates may run through a third protein.

Biological target: HA-nsp3mut/4-V5 (unprocessed nsp3/4 polyprotein with inactive PLpro protease, C1592A) (SARS-CoV-2)
Test: co-IP

B1: HSD17B12 (enzyme, UniProt Q53GQ0 1-312)
chain: MESALPAAGFLYWVGAGTVAYLALRISYSLFTALRVWGVGNEAGVGPGLGEWAVVTGSTDGIGKSYAEELAKHGMKVVLISRSKDKLDQVSSEIKEKFKVETRTIAVDFASEDIYDKIKTGLAGLEIGILVNNVGMSYEYPEYFLDVPDLDNVIKKMININILSVCKMTQLVLPGMVERSKGAILNISSGSGMLPVPLLTIYSATKTFVDFFSQCLHEEYRSKGVFVQSVLPYFVATKLAKIRKPTLDKPSPETFVKSAIKTVGLQSRTNGYLIHALMGSIISNLPSWIYLKIVMNMNKSTRAHYLKKTKKN
B1 was tested, and the binding was “no binding”.
